These are yes or no findings as the source states them, for the method shown. In cells and extracts the contact can be indirect. Sequences can lack the tags named with a protein.
Target: T1, Flag-STYX (serine/threonine/tyrosine interacting protein) (UniProt Q8WUJ0)
T1 sequence: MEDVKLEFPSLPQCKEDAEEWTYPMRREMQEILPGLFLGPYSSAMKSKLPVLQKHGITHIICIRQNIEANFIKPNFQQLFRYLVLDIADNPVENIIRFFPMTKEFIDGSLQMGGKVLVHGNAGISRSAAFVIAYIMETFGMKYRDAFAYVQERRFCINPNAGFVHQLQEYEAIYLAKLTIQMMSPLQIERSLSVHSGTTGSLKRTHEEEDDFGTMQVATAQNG
Assay: co-IP; SGC-7901 cells co-transfected with expression vectors for 48 h, lysed with IP lysis buffer; about 1 mg total protein with 5 µg anti-Flag or anti-Myc antibody or IgG overnight at 4 °C, Protein A/G PLUS agarose beads, western blot

Protein sequences, listed by entry. Tags and fused reporters are not part of them. Lines headed by an entry give the natural chain unless they say otherwise; changes in a name come on top.
UniProt Q5XUX0: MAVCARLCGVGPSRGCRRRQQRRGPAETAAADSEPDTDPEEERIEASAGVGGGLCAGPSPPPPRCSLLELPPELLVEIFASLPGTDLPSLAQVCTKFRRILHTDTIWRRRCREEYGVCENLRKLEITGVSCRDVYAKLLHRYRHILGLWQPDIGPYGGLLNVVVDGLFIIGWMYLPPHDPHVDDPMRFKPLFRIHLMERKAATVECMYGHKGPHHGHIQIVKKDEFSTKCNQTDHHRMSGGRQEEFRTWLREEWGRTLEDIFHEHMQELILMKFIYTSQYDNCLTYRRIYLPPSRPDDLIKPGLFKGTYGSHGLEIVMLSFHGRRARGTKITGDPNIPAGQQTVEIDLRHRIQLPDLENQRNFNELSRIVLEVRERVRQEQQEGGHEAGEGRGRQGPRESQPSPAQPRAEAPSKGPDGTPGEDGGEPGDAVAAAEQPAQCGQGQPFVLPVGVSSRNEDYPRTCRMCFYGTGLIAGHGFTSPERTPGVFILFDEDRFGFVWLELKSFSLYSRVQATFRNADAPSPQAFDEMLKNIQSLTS

- binding: no binding
Substance: Myc-FBXO31ΔF (F-box domain deletion mutant) (from UniProt Q5XUX0)

From article PMC8956710
